Reference: article PMC12203914
No constants are given. Whether binding was seen depends on the method and setting. In cells and extracts the contact can be indirect. Some results given as binding are weak or reduced against the parent protein; the word gives no strength.

Chains of the proteins cited; added tags and fusions are not shown.
UniProt P09874: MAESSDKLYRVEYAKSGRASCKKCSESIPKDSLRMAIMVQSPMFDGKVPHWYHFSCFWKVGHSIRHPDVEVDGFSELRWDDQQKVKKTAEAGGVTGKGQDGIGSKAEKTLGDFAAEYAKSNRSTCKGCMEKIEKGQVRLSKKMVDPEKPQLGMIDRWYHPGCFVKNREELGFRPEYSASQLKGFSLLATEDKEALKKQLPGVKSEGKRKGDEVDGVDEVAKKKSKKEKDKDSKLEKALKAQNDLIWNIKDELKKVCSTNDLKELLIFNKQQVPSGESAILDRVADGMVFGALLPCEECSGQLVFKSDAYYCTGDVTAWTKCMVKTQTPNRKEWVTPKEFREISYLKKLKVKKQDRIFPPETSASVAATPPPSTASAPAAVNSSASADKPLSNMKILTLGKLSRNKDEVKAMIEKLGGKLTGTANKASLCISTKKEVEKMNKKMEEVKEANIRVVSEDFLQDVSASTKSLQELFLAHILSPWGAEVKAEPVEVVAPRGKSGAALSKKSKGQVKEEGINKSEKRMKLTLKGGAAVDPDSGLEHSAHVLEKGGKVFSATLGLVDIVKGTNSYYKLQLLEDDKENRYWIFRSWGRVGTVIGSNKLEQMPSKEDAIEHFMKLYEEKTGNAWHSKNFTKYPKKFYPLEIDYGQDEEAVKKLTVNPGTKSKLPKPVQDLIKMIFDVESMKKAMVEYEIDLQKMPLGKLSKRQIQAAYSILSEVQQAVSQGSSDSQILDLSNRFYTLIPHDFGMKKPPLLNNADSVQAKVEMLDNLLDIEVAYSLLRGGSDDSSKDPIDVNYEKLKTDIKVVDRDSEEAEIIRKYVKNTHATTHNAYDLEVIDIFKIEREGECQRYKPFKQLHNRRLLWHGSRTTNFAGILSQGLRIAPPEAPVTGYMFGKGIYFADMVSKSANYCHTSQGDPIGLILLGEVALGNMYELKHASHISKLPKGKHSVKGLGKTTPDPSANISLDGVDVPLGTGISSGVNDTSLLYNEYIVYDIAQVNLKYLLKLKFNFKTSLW

What was measured:
[1] = target: Ser139-phosphorylated histone H2AX (γH2AX) (human (endogenous in U2OS, HEK293T, HeLa)) (UniProt P16104); assay: proximity ligation; Duolink PLA on fixed, permeabilised cells (HeLa, U2OS, HEK293T) with antibodies against the two proteins; untreated or 10 Gy IR; also in YBX1-/- and Y3 ASO-treated cells
[2] = target: PARP1 (human (endogenous in HeLa, U2OS, HEK293T)) (UniProt P09874); assay: as above
[3] = target: YFP-tagged PARP1 (UniProt P09874); assay: co-IP; GFP-Trap beads on lysates (with Pierce Universal Nuclease) of YFP-PARP1-transfected HEK293T cells, wild type or YBX1-/-, untreated or 10 Gy IR; blot for YBX1

binding [1]: binds
binding [2]: binds
binding [3]: binds
Substance: Y-Box Binding Protein 1 (YBX1) (from UniProt P67809 1-324)
